Data on 3 molecules can be found in paper PMC12682859, “Interconnected roles of mitochondrial carrier proteins ANT, PiT, and UCPs in proton transport” (Frontiers in Molecular Biosciences, 2025).

For assay [1], the target named is uncoupling protein 2 (UCP2), recombinant His6-tagged (human) (UniProt P55851). Briefly: condition: only in OG detergent, before reconstitution into liposomes; semi-native SDS-PAGE; single purified protein in OG detergent before reconstitution; no SDS in loading buffer, 0.1% SDS in gel and running buffer, samples not heated; Coomassie staining; both purified.
The target of assay [2] is uncoupling protein 4 (UCP4), recombinant His6-tagged (human) (UniProt O95847). Described as above.
The target in assay [3] is adenine nucleotide translocase 1 (ANT1), recombinant His6-tagged (bovine) (UniProt P02722). Briefly: condition: only with 2.5% added cardiolipin in the liposomes; semi-native SDS-PAGE; single purified protein reconstituted in liposomes of EYPC + 2.5 mol% added cardiolipin; 0.1% SDS in gel and running buffer, samples not heated; Coomassie staining; both purified.
Assay [4] has the same target. Put plainly: condition: only in OG detergent, before reconstitution into liposomes; semi-native SDS-PAGE; single purified protein in OG detergent before reconstitution; no SDS in loading buffer, 0.1% SDS in gel and running buffer, samples not heated; Coomassie staining; both purified.

No constants are given. Whether binding was seen depends on the method and setting. Tags and fused reporters may be left off the sequences shown.

B1: uncoupling protein 2 (UCP2), recombinant His6-tagged (natural protein, human, UniProt P55851 1-309, looked up)
chain: MVGFKATDVPPTATVKFLGAGTAACIADLITFPLDTAKVRLQIQGESQGPVRATASAQYRGVMGTILTMVRTEGPRSLYNGLVAGLQRQMSFASVRIGLYDSVKQFYTKGSEHASIGSRLLAGSTTGALAVAVAQPTDVVKVRFQAQARAGGGRRYQSTVNAYKTIAREEGFRGLWKGTSPNVARNAIVNCAELVTYDLIKDALLKANLMTDDLPCHFTSAFGAGFCTTVIASPVDVVKTRYMNSALGQYSSAGHCALTMLQKEGPRAFYKGFMPSFLRLGSWNVVMFVTYEQLKRALMAACTSREAPF
notes: human UCP2, UniProt P55851; Cloned in pET26b(+); purified as a monomer in OG, tetramer after reconstitution in liposomes; source: E. coli BL21 (DE3) or BL21 CodonPlus (DE3)-RIPL, extracted from bacterial membranes, purified (Ni-NTA IMAC, 1% OG); not shown: pelB leader, N-terminal, cleaved; His6, N-terminal, kept
As for B1, the binding entry in assay [1] is “no binding”.

B2: uncoupling protein 4 (UCP4), recombinant His6-tagged (natural protein, human, UniProt O95847 1-323, looked up)
chain: MSVPEEEERLLPLTQRWPRASKFLLSGCAATVAELATFPLDLTKTRLQMQGEAALARLGDGARESAPYRGMVRTALGIIEEEGFLKLWQGVTPAIYRHVVYSGGRMVTYEHLREVVFGKSEDEHYPLWKSVIGGMMAGVIGQFLANPTDLVKVQMQMEGKRKLEGKPLRFRGVHHAFAKILAEGGIRGLWAGWVPNIQRAALVNMGDLTTYDTVKHYLVLNTPLEDNIMTHGLSSLCSGLVASILGTPADVIKSRIMNQPRDKQGRGLLYKSSTDCLIQAVQGEGFMSLYKGFLPSWLRMTPWSMVFWLTYEKIREMSGVSPF
notes: human UCP4, UniProt O95847; Cloned in pET26b(+); purified as a monomer in OG, tetramer after reconstitution in liposomes; source: E. coli BL21 (DE3) or BL21 CodonPlus (DE3)-RIPL, extracted from bacterial membranes, purified (Ni-NTA IMAC, 1% OG); not shown: pelB leader, N-terminal, cleaved; His6, N-terminal, kept
In the case of B2, in assay [2], the binding entry is given as “no binding”.

B3: adenine nucleotide translocase 1 (ANT1), recombinant His6-tagged (natural protein, bovine)
chain: SDQALSFLKDFLAGGVAAAISKTAVAPIERVKLLLQVQHASKQISAEKQYKGIIDCVVRIPKEQGFLSFWRGNLANVIRYFPTQALNFAFKDKYKQIFLGGVDRHKQFWRYFAGNLASGGAAGATSLCFVYPLDFARTRLAADVGKGAAQREFTGLGNCITKIFKSDGLRGLYQGFNVSVQGIIIYRAAYFGVYDTAKGMLPDPKNVHIIVSWMIAQTVTAVAGLVSYPFDTVRRRMMMQSGRKGADIMYTGTVDCWRKIAKDEGPKAFFKGAWSNVLRGMGGAFVLVLYDEIKKFV
notes: bovine ANT1, UniProt P02722; Cloned in pET26b(+); also called ADP/ATP carrier; AAC; source: E. coli BL21 (DE3) or BL21 CodonPlus (DE3)-RIPL, extracted from bacterial membranes, purified (Ni-NTA IMAC, 1% OG); not shown: pelB leader, N-terminal, cleaved; His6, N-terminal, kept
Consider B3, for which the binding entry in assay [3] and in assay [4] was “no binding” throughout.
